Data published in the supplement of paper PMC9233669.
Variants at the floor of the assay are shown more often than the library holds them.

Tests used:
biotinyl-Trp-oxazolone = experiment: self-aminoacylation, catalytic enhancement (BWO) (fold over background); higher = more active; k-Seq, kA / k0A0; sequences stand for … in GGGAAUGGAUCCACAUCUACGAAUUC…UUCACUGCAGACUUGACGAAGCUG
Method in brief: (§1)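 Mutagenized RNA pools (0.43 μM; 21-nt variable region) were treated with 2–1250 μM of each biotinyl-aminoacyl-oxazolone. Conditions were 50 μL HEPES/NaCl/KCl/MgCl2/CaCl2 buffer, 5% acetonitrile, pH 6.9–7.0, room temperature, 90 minutes. Catalytic enhancement, the median kA relative to the uncatalyzed rate, was derived from streptavidin capture, qPCR and Illumina sequencing.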

biotinyl-Phe-oxazolone = experiment: self-aminoacylation, catalytic enhancement (BFO) (fold over background); higher = more active; k-Seq, kA / k0A0; sequences stand for … in GGGAAUGGAUCCACAUCUACGAAUUC…UUCACUGCAGACUUGACGAAGCUG
Method in brief: as §1

biotinyl-Ile-oxazolone = experiment: self-aminoacylation, catalytic enhancement (BIO) (fold over background); higher = more active; k-Seq, kA / k0A0; sequences stand for … in GGGAAUGGAUCCACAUCUACGAAUUC…UUCACUGCAGACUUGACGAAGCUG
Method in brief: as §1

biotinyl-Val-oxazolone = experiment: self-aminoacylation, catalytic enhancement (BVO) (fold over background); higher = more active; k-Seq, kA / k0A0; sequences stand for … in GGGAAUGGAUCCACAUCUACGAAUUC…UUCACUGCAGACUUGACGAAGCUG
Method in brief: as §1

biotinyl-Leu-oxazolone = experiment: self-aminoacylation, catalytic enhancement (BLO) (fold over background); higher = more active; k-Seq, kA / k0A0; sequences stand for … in GGGAAUGGAUCCACAUCUACGAAUUC…UUCACUGCAGACUUGACGAAGCUG
Method in brief: as §1

biotinyl-Met-oxazolone = experiment: self-aminoacylation, catalytic enhancement (BMO) (fold over background); higher = more active; k-Seq, kA / k0A0; sequences stand for … in GGGAAUGGAUCCACAUCUACGAAUUC…UUCACUGCAGACUUGACGAAGCUG
Method in brief: as §1

Sequence: CUACUUCAAAAAAUUGGUCUG [Fam1A.1 aminoacylation ribozyme variant]
- self-aminoacylation (biotinyl-Trp-oxazolone): 0.761
- self-aminoacylation (biotinyl-Phe-oxazolone): 0.842
- self-aminoacylation (biotinyl-Ile-oxazolone): 0.931
- self-aminoacylation (biotinyl-Val-oxazolone): 0.768
- self-aminoacylation (biotinyl-Leu-oxazolone): 0.903
- self-aminoacylation (biotinyl-Met-oxazolone): 0.83

Sequence: CUACUUCAAAAAUUCGGUCUG [Fam1A.1 aminoacylation ribozyme variant]
- self-aminoacylation (biotinyl-Trp-oxazolone): 1.12
- self-aminoacylation (biotinyl-Phe-oxazolone): 3.5
- self-aminoacylation (biotinyl-Ile-oxazolone): 1.44
- self-aminoacylation (biotinyl-Val-oxazolone): 1.45
- self-aminoacylation (biotinyl-Leu-oxazolone): 1.65
- self-aminoacylation (biotinyl-Met-oxazolone): 1.37

Sequence: CUACUUCAAACAAACGGCCUG [Fam1A.1 aminoacylation ribozyme variant]
- self-aminoacylation (biotinyl-Trp-oxazolone): 0.967
- self-aminoacylation (biotinyl-Phe-oxazolone): 0.719
- self-aminoacylation (biotinyl-Ile-oxazolone): 1.38
- self-aminoacylation (biotinyl-Val-oxazolone): 1.13
- self-aminoacylation (biotinyl-Leu-oxazolone): 1.18
- self-aminoacylation (biotinyl-Met-oxazolone): 1.01

Sequence: CUACUUCAAACAAACGGUCUC [Fam1A.1 aminoacylation ribozyme variant]
- self-aminoacylation (biotinyl-Trp-oxazolone): 0.448
- self-aminoacylation (biotinyl-Phe-oxazolone): 1
- self-aminoacylation (biotinyl-Ile-oxazolone): 0.671
- self-aminoacylation (biotinyl-Val-oxazolone): 0.686
- self-aminoacylation (biotinyl-Leu-oxazolone): 0.651
- self-aminoacylation (biotinyl-Met-oxazolone): 0.599

Sequence: CUACUUCAAACAAGCGGUCAG [Fam1A.1 aminoacylation ribozyme variant]
- self-aminoacylation (biotinyl-Trp-oxazolone): 0.774
- self-aminoacylation (biotinyl-Phe-oxazolone): 0.856
- self-aminoacylation (biotinyl-Ile-oxazolone): 0.698
- self-aminoacylation (biotinyl-Val-oxazolone): 0.674
- self-aminoacylation (biotinyl-Leu-oxazolone): 0.811
- self-aminoacylation (biotinyl-Met-oxazolone): 0.771

Sequence: CUACUUCAAACAAGCGGUCUU [Fam1A.1 aminoacylation ribozyme variant]
- self-aminoacylation (biotinyl-Trp-oxazolone): 0.716
- self-aminoacylation (biotinyl-Phe-oxazolone): 0.824
- self-aminoacylation (biotinyl-Ile-oxazolone): 1.06
- self-aminoacylation (biotinyl-Val-oxazolone): 1.02
- self-aminoacylation (biotinyl-Leu-oxazolone): 0.996
- self-aminoacylation (biotinyl-Met-oxazolone): 0.989

Sequence: CUACUUCAAACAAGCGUUCUG [Fam1A.1 aminoacylation ribozyme variant]
- self-aminoacylation (biotinyl-Trp-oxazolone): 0.503
- self-aminoacylation (biotinyl-Phe-oxazolone): 0.391
- self-aminoacylation (biotinyl-Ile-oxazolone): 0.481
- self-aminoacylation (biotinyl-Val-oxazolone): 0.499
- self-aminoacylation (biotinyl-Leu-oxazolone): 0.517
- self-aminoacylation (biotinyl-Met-oxazolone): 0.499

Sequence: CUACUUCAAACAAUCGAUCUA [Fam1A.1 aminoacylation ribozyme variant]
- self-aminoacylation (biotinyl-Trp-oxazolone): 0.404
- self-aminoacylation (biotinyl-Phe-oxazolone): 0.839
- self-aminoacylation (biotinyl-Ile-oxazolone): 0.551
- self-aminoacylation (biotinyl-Val-oxazolone): 0.822
- self-aminoacylation (biotinyl-Leu-oxazolone): 0.546
- self-aminoacylation (biotinyl-Met-oxazolone): 0.449

Sequence: CUACUUCAAACAAUCGAUCUU [Fam1A.1 aminoacylation ribozyme variant]
- self-aminoacylation (biotinyl-Trp-oxazolone): 0.58
- self-aminoacylation (biotinyl-Phe-oxazolone): 0.999
- self-aminoacylation (biotinyl-Ile-oxazolone): 0.735
- self-aminoacylation (biotinyl-Val-oxazolone): 0.768
- self-aminoacylation (biotinyl-Leu-oxazolone): 0.591
- self-aminoacylation (biotinyl-Met-oxazolone): 0.65

Sequence: CUACUUCAAACAAUCGGCCUG [Fam1A.1 aminoacylation ribozyme variant]
- self-aminoacylation (biotinyl-Trp-oxazolone): 48.1
- self-aminoacylation (biotinyl-Phe-oxazolone): 85.3
- self-aminoacylation (biotinyl-Ile-oxazolone): 1.69
- self-aminoacylation (biotinyl-Val-oxazolone): 1.78
- self-aminoacylation (biotinyl-Leu-oxazolone): 2.86
- self-aminoacylation (biotinyl-Met-oxazolone): 1.87

Sequence: CUACUUCAAACAAUCGGGUUG [Fam1A.1 aminoacylation ribozyme variant]
- self-aminoacylation (biotinyl-Trp-oxazolone): 1.82
- self-aminoacylation (biotinyl-Phe-oxazolone): 1.62
- self-aminoacylation (biotinyl-Ile-oxazolone): 1.21
- self-aminoacylation (biotinyl-Val-oxazolone): 1.3
- self-aminoacylation (biotinyl-Leu-oxazolone): 1.24
- self-aminoacylation (biotinyl-Met-oxazolone): 1.44

Sequence: CUACUUCAAACAAUCGGUCUU [Fam1A.1 aminoacylation ribozyme variant]
- self-aminoacylation (biotinyl-Trp-oxazolone): 15.3
- self-aminoacylation (biotinyl-Phe-oxazolone): 31.2
- self-aminoacylation (biotinyl-Ile-oxazolone): 1.09
- self-aminoacylation (biotinyl-Val-oxazolone): 1.05
- self-aminoacylation (biotinyl-Leu-oxazolone): 1.3
- self-aminoacylation (biotinyl-Met-oxazolone): 1.06

Sequence: CUACUUCAAACAAUCGUUCUG [Fam1A.1 aminoacylation ribozyme variant]
- self-aminoacylation (biotinyl-Trp-oxazolone): 0.843
- self-aminoacylation (biotinyl-Phe-oxazolone): 1.84
- self-aminoacylation (biotinyl-Ile-oxazolone): 0.571
- self-aminoacylation (biotinyl-Val-oxazolone): 0.603
- self-aminoacylation (biotinyl-Leu-oxazolone): 0.464
- self-aminoacylation (biotinyl-Met-oxazolone): 0.49

Sequence: CUACUUCAAACAAUCUGUCAG [Fam1A.1 aminoacylation ribozyme variant]
- self-aminoacylation (biotinyl-Trp-oxazolone): 0.418
- self-aminoacylation (biotinyl-Phe-oxazolone): 0.601
- self-aminoacylation (biotinyl-Ile-oxazolone): 0.652
- self-aminoacylation (biotinyl-Val-oxazolone): 0.683
- self-aminoacylation (biotinyl-Leu-oxazolone): 0.544
- self-aminoacylation (biotinyl-Met-oxazolone): 0.554

Sequence: CUACUUCAAACAAUGGCUCUG [Fam1A.1 aminoacylation ribozyme variant]
- self-aminoacylation (biotinyl-Trp-oxazolone): 0.378
- self-aminoacylation (biotinyl-Phe-oxazolone): 0.965
- self-aminoacylation (biotinyl-Ile-oxazolone): 0.845
- self-aminoacylation (biotinyl-Val-oxazolone): 0.75
- self-aminoacylation (biotinyl-Leu-oxazolone): 0.715
- self-aminoacylation (biotinyl-Met-oxazolone): 0.771

Sequence: CUACUUCAAACAAUGGGUCGG [Fam1A.1 aminoacylation ribozyme variant]
- self-aminoacylation (biotinyl-Trp-oxazolone): 0.513
- self-aminoacylation (biotinyl-Phe-oxazolone): 0.587
- self-aminoacylation (biotinyl-Ile-oxazolone): 0.828
- self-aminoacylation (biotinyl-Val-oxazolone): 0.729
- self-aminoacylation (biotinyl-Leu-oxazolone): 0.878
- self-aminoacylation (biotinyl-Met-oxazolone): 0.793

Sequence: CUACUUCAAACACUCGAUCUG [Fam1A.1 aminoacylation ribozyme variant]
- self-aminoacylation (biotinyl-Trp-oxazolone): 0.404
- self-aminoacylation (biotinyl-Phe-oxazolone): 0.695
- self-aminoacylation (biotinyl-Ile-oxazolone): 0.716
- self-aminoacylation (biotinyl-Val-oxazolone): 0.763
- self-aminoacylation (biotinyl-Leu-oxazolone): 0.52
- self-aminoacylation (biotinyl-Met-oxazolone): 0.539

Sequence: CUACUUCAAACAGGCGGUCUG [Fam1A.1 aminoacylation ribozyme variant]
- self-aminoacylation (biotinyl-Trp-oxazolone): 0.971
- self-aminoacylation (biotinyl-Phe-oxazolone): 0.701
- self-aminoacylation (biotinyl-Ile-oxazolone): 1.16
- self-aminoacylation (biotinyl-Val-oxazolone): 1.18
- self-aminoacylation (biotinyl-Leu-oxazolone): 0.985
- self-aminoacylation (biotinyl-Met-oxazolone): 1.14

Sequence: CUACUUCAAACAGUCGGUUUG [Fam1A.1 aminoacylation ribozyme variant]
- self-aminoacylation (biotinyl-Trp-oxazolone): 0.676
- self-aminoacylation (biotinyl-Phe-oxazolone): 0.578
- self-aminoacylation (biotinyl-Ile-oxazolone): 0.805
- self-aminoacylation (biotinyl-Val-oxazolone): 0.815
- self-aminoacylation (biotinyl-Leu-oxazolone): 0.833
- self-aminoacylation (biotinyl-Met-oxazolone): 0.718

Sequence: CUACUUCAAACAUUCGGCCUG [Fam1A.1 aminoacylation ribozyme variant]
- self-aminoacylation (biotinyl-Trp-oxazolone): 0.772
- self-aminoacylation (biotinyl-Phe-oxazolone): 1.26
- self-aminoacylation (biotinyl-Ile-oxazolone): 1.48
- self-aminoacylation (biotinyl-Val-oxazolone): 1.66
- self-aminoacylation (biotinyl-Leu-oxazolone): 1.74
- self-aminoacylation (biotinyl-Met-oxazolone): 1.71

Sequence: CUACUUCAAACAUUCGGUCAG [Fam1A.1 aminoacylation ribozyme variant]
- self-aminoacylation (biotinyl-Trp-oxazolone): 0.688
- self-aminoacylation (biotinyl-Phe-oxazolone): 0.674
- self-aminoacylation (biotinyl-Ile-oxazolone): 0.901
- self-aminoacylation (biotinyl-Val-oxazolone): 0.992
- self-aminoacylation (biotinyl-Leu-oxazolone): 0.861
- self-aminoacylation (biotinyl-Met-oxazolone): 0.886

Sequence: CUACUUCAAACCAUCGGUCUA [Fam1A.1 aminoacylation ribozyme variant]
- self-aminoacylation (biotinyl-Trp-oxazolone): 0.453
- self-aminoacylation (biotinyl-Phe-oxazolone): 1.04
- self-aminoacylation (biotinyl-Ile-oxazolone): 0.945
- self-aminoacylation (biotinyl-Val-oxazolone): 0.814
- self-aminoacylation (biotinyl-Leu-oxazolone): 0.736
- self-aminoacylation (biotinyl-Met-oxazolone): 0.79

Sequence: CUACUUCAAACCCUCGGUCUG [Fam1A.1 aminoacylation ribozyme variant]
- self-aminoacylation (biotinyl-Trp-oxazolone): 1.48
- self-aminoacylation (biotinyl-Phe-oxazolone): 0.785
- self-aminoacylation (biotinyl-Ile-oxazolone): 1.13
- self-aminoacylation (biotinyl-Val-oxazolone): 0.974
- self-aminoacylation (biotinyl-Leu-oxazolone): 0.761
- self-aminoacylation (biotinyl-Met-oxazolone): 1.04

Sequence: CUACUUCAAACGAACGGUCUG [Fam1A.1 aminoacylation ribozyme variant]
- self-aminoacylation (biotinyl-Trp-oxazolone): 0.289
- self-aminoacylation (biotinyl-Phe-oxazolone): 1.07
- self-aminoacylation (biotinyl-Ile-oxazolone): 0.605
- self-aminoacylation (biotinyl-Val-oxazolone): 0.764
- self-aminoacylation (biotinyl-Leu-oxazolone): 0.392
- self-aminoacylation (biotinyl-Met-oxazolone): 0.67

Sequence: CUACUUCAAACGCUCGGUCUG [Fam1A.1 aminoacylation ribozyme variant]
- self-aminoacylation (biotinyl-Trp-oxazolone): 0.637
- self-aminoacylation (biotinyl-Phe-oxazolone): 0.793
- self-aminoacylation (biotinyl-Ile-oxazolone): 0.741
- self-aminoacylation (biotinyl-Val-oxazolone): 0.828
- self-aminoacylation (biotinyl-Leu-oxazolone): 1.09
- self-aminoacylation (biotinyl-Met-oxazolone): 0.592

Sequence: CUACUUCAAACGGUCGGUCUG [Fam1A.1 aminoacylation ribozyme variant]
- self-aminoacylation (biotinyl-Trp-oxazolone): 1.13
- self-aminoacylation (biotinyl-Phe-oxazolone): 0.481
- self-aminoacylation (biotinyl-Ile-oxazolone): 1.08
- self-aminoacylation (biotinyl-Val-oxazolone): 0.953
- self-aminoacylation (biotinyl-Leu-oxazolone): 1.16
- self-aminoacylation (biotinyl-Met-oxazolone): 0.959
